Patent publication US20100068252A1, “METHOD FOR PREPARING POLYMERIC MATRICES BY RADIATION IN THE PRESENCE OF SENSITIVE PHARMACEUTICAL COMPOUNDS” (DSM IP ASSETS B.V., priority 2006, published 2010)
The name of at least one read-out is uncertain. For some of these results: For at least one compound, name, drawing or mass did not settle the structure.

Assays:
Assay type in all cases: physicochemical
[1] = Phase (i) testing: UV irradiation of drug solution alone, drug recovery by HPLC; conditions: for recovery, Irradiation 2 J/cm^2: UV 2 J/cm^2; for recovery, Irradiation 12 J/cm^2: UV 12 J/cm^2
[2] = Phase (ii) testing: UV irradiation of drug with photoinitiator (radical generation), drug recovery by HPLC
Text: As used herein, the term sensitive pharmaceutical compounds is to be interpreted as compounds that degrade for more than 5% in an environment with radical generation at 12 J/cm^2 irradiation. More in particular, the pharmaceutical can be sensitive during polymerisation that can be initiated with UV or visible light (200-700 nm) or with electron beam or gamma radiation, and without or up to 10% radical generating species (initiator) present. If an initiator is present, it is preferably about 1-10 wt % of a photoinitiator. In addition to photoinitiators, the system may comprise also a thermal initiator (for example peroxide and/or redox initiators). Preferably a radiation sensitive (photo)initiator is used, for example a Norrish Type I or Type II initiator. It is possible to work in the absence of these radical generating species where electron beam or gamma radiation is used or in the case where unsaturated compounds (one compound whose double bond is electron rich and another compound whose double bond is electron poor) react with each other via a donor-acceptor complex to form a polymer.
Potential degradation can be measured by dissolving 100 ppm (0.1 g/l) pharmaceutical compound in a suitable solvent in a quartz, glass or HPLC vessel. One series of vessels is used as such. In a second series of vessels, the one or more initiators, preferably those used in the polymerization mixture, are added in the same amount as the pharmaceutical compound. Next, the vessels are subjected to irradiation at 2 and 12 J/cm^2. As an example, UV radiation can be performed with a lab UV source Bluepoint 2, equipped with a D-bulb D65 and directed onto the sample by a UV light guide. The output from the guide is 200 mW/cm^2 (200 mJ/cm^2 per second) as measured with a Solascope 1 UV spectrometer. A dose of 2 and 12 J/cm^2 was achieved by irradiating 10 and 60 seconds, respectively. The choice of irradiation system could be governed by the applications or processing considerations that typically influence hardware use in a laboratory, hospital or manufacturing environment. For example where the irradiation is performed in vivo for dental. cements and adhesives, intraocular lenses, surgical sealants or barriers the preferred light source is often visible light. Thus for these applications a visible light source would be used instead of UV.
The recovery could be analysed by HPLC. In order to reliably measure the drug concentration before and after exposure to light, a reversed phase HPLC method was developed, to chromatographically separate the drug from the photoinitiator and polymerising species (like acrylates). A Hewlett Packard 1090 HPLC apparatus equipped with a X Terra RP 18 (3.5 μm) column was used to separate the drug from the initiator and (meth)acrylate monomer and establish the drug concentration in solution. Acetonitrile and a 10 mM phosphoric acid in water solution were used as the eluents. In this screening set up the monomers are chosen such that the resulting polymer is not chemically crosslinked to form a polymer network, since this may entrap the drugs and render subsequent analysis difficult. UV detection at about 250 nm was used. A linear calibration curve (drug peak area vs. drug concentration) was obtained for the drugs in the range of concentrations used. UV spectra of the drugs before and after UV irradiation (at both 2 and 12 J/cm^2) had identical shapes, meaning that the HPLC method could be used to quantitatively measure changes in drug concentrations. Any degradation would be calculated as: minus the percentage of recovered API.
UV irradiation of drug-containing solutions (see below) was performed with a lab UV source Dr. Hoenle Bluepoint 2, equipped with a D-bulb, directed onto the (open) HPLC vials (2 ml) by a UV light guide (200 mW/cm^2; 200 mJ/cm^2 per second as measured with Solascope 1 UV emission spectrometer). The (unstirred) solutions were exposed to 2 J/cm^2 (“low” UV dose) or 12 J/cm^2 (“high” UV dose). […]

[3] = Phase (iii) testing: UV irradiation of drug with photoinitiator and polymerisable compound/additive, drug recovery by HPLC
[4] = 100 ppm in 50% water 50% ethanol
[5] = Example III separate experiment, quartz HPLC vessels
[6] = with Irg 2959 (100 ppm), water/ethanol, UV 2 J/cm^2
[7] = with Irg 2959 (100 ppm), water/ethanol, UV 12 J/cm^2

## CCCCc1oc2ccccc2c1C(=O)c1cc(I)c(OCCN(CC)CC)c(I)c1 [Amiodarone ®, Amiodarone]
[1]; [4]
  recovery, Irradiation 2 J/cm^2: 99.5% recovery
  recovery, Irradiation 12 J/cm^2: 93% recovery
[2]; with Irg 819, water/ethanol, UV 2 J/cm^2
  recovery, Irradiation 2 J/cm^2: 87% recovery
[2]; with Irg 819, water/ethanol, UV 12 J/cm^2
  recovery, Irradiation 12 J/cm^2: 56% recovery
[3]; with Irg 819 and hydroxyethylacrylate, water/ethanol, UV 2 J/cm^2
  recovery, Irradiation 2 J/cm^2: 94% recovery
[3]; with Irg 819 and hydroxyethylacrylate, water/ethanol, UV 12 J/cm^2
  recovery, Irradiation 12 J/cm^2: 78% recovery

## COc1cc2nc(N3CCN(C(=O)c4ccco4)CC3)nc(N)c2cc1OC [Prazosin ®, Prazosin]
[1]; [4]
  recovery, Irradiation 2 J/cm^2: 99% recovery
  recovery, Irradiation 12 J/cm^2: 98% recovery
[1]; [5]
  recovery, Irradiation 2 J/cm^2: >99% recovery
  recovery, Irradiation 12 J/cm^2: 98.5% recovery
[2]; Example III, quartz HPLC vessels, with Irg 2959, UV 2 J/cm^2
  recovery, Irradiation 2 J/cm^2: 98% recovery
[2]; Example III, quartz HPLC vessels, with Irg 2959, UV 12 J/cm^2
  recovery, Irradiation 12 J/cm^2: 90% recovery
[2]; [6]
  recovery, Irradiation 2 J/cm^2: 97% recovery
[2]; [7]
  recovery, Irradiation 12 J/cm^2: 89% recovery
[3]; Example III, quartz HPLC vessels, with Irg 2959 and DMEA, UV 2 J/cm^2
  recovery, Irradiation 2 J/cm^2: >99% recovery
[3]; Example III, quartz HPLC vessels, with Irg 2959 and DMEA, UV 12 J/cm^2
  recovery, Irradiation 12 J/cm^2: 97% recovery
[3]; Example III, quartz HPLC vessels, with Irg 2959 and hydroxyethylacrylate and DMEA, UV 2 J/cm^2
  recovery, Irradiation 2 J/cm^2: 98% recovery
[3]; Example III, quartz HPLC vessels, with Irg 2959 and hydroxyethylacrylate and DMEA, UV 12 J/cm^2
  recovery, Irradiation 12 J/cm^2: 96% recovery
[3]; Example III, quartz HPLC vessels, with Irg 2959 and hydroxyethylacrylate, UV 2 J/cm^2
  recovery, Irradiation 2 J/cm^2: 98% recovery
[3]; Example III, quartz HPLC vessels, with Irg 2959 and hydroxyethylacrylate, UV 12 J/cm^2
  recovery, Irradiation 12 J/cm^2: 92.5% recovery
[3]; with Irg 2959 and hydroxyethylacrylate, water/ethanol, UV 2 J/cm^2
  recovery, Irradiation 2 J/cm^2: 97% recovery
[3]; with Irg 2959 and hydroxyethylacrylate, water/ethanol, UV 12 J/cm^2
  recovery, Irradiation 12 J/cm^2: 92.5% recovery
[3]; with Irg 2959 and hydroxyethylmethacrylate, water/ethanol, UV 2 J/cm^2
  recovery, Irradiation 2 J/cm^2: 98.5% recovery
[3]; with Irg 2959 and hydroxyethylmethacrylate, water/ethanol, UV 12 J/cm^2
  recovery, Irradiation 12 J/cm^2: 97% recovery

## CO[C@H]1C[C@@H]2CC[C@@H](C)[C@@](O)(O2)C(=O)C(=O)N2CCCC[C@H]2C(=O)O[C@H]([C@H](C)C[C@@H]2CC[C@@H](O)[C@H](OC)C2)CC(=O)[C@H](C)/C=C(\C)[C@@H](O)[C@@H](OC)C(=O)[C@H](C)C[C@H](C)/C=C/C=C/C=C/1C [Rapamycin®, Rapamycin]
[2]; sensitive = degrades more than 5% with radical generation at 12 J/cm^2
  radical sensitivity in the current testing method: radical sensitive

## COc1cc2nc(N3CCN(C(=O)C4CCCO4)CC3)nc(N)c2cc1OC (stereo not shown) [Terazosin ®, Terazosin]
[1]; [4]
  recovery, Irradiation 2 J/cm^2: 100% recovery
  recovery, Irradiation 12 J/cm^2: 100% recovery
[2]; [6]
  recovery, Irradiation 2 J/cm^2: 98% recovery
[2]; [7]
  recovery, Irradiation 12 J/cm^2: 89% recovery
[3]; bulk polymerization of hydroxyethylacrylate with 2% terazosin and 1% Irgacure 2959, UV 2 J/cm^2
  recovery, Irradiation 2 J/cm^2: 98% recovery
[3]; bulk polymerization of hydroxyethylacrylate with 2% terazosin and 1% Irgacure 2959, UV 12 J/cm^2
  recovery, Irradiation 12 J/cm^2: 95% recovery
